Values of other authors in EP0003794B1, “Testosterone esters, process for their preparation and pharmaceutical compositions containing them” (priority 1978, dated 1979).
For at least one compound, name, drawing or mass did not settle the structure.

Details: cited from earlier work
[1] = J. Am. Chem. Soc. 79 (1956) 4472 - 4475, Tabelle IV

For `CCCCOC(C)CC(=O)O[C@H]1CC[C@H]2[C@@H]3CCC4=CC(=O)CC[C@]4(C)[C@H]3CC[C@]12C` (stereo partly drawn) [3-(n-Butoxy)-butyrat], the “Wirkungsdauer im Vergleich zu Testosteronpropionat” value [1] is listed as ~3 mal, the “Wirkungsstärke im Vergleich zu Testosteronpropionat” value [1] is listed as “etwa doppelt so stark wirksam” and the “Wirkungsdauer und Wirkungsstärke” value (compared with Testosteronheptanoat, Tabelle I of J. Am. Chem. Soc. 79 (1956)) is listed as “vergleichbar mit Testosteronheptanoat”.
